Source: publication doi:10.1101/2022.12.19.520889
No constants are given. Whether binding was seen depends on the method and setting. Binding seen in cells or lysates may run through a third protein. Some binding calls cover weakened binding; strength is not graded here. One block for each binder: values may come before it.

Protein sequences, listed by entry. Tags and fused reporters are not part of them. Residues count along the entry.
UniProt P10721, residues 26-976: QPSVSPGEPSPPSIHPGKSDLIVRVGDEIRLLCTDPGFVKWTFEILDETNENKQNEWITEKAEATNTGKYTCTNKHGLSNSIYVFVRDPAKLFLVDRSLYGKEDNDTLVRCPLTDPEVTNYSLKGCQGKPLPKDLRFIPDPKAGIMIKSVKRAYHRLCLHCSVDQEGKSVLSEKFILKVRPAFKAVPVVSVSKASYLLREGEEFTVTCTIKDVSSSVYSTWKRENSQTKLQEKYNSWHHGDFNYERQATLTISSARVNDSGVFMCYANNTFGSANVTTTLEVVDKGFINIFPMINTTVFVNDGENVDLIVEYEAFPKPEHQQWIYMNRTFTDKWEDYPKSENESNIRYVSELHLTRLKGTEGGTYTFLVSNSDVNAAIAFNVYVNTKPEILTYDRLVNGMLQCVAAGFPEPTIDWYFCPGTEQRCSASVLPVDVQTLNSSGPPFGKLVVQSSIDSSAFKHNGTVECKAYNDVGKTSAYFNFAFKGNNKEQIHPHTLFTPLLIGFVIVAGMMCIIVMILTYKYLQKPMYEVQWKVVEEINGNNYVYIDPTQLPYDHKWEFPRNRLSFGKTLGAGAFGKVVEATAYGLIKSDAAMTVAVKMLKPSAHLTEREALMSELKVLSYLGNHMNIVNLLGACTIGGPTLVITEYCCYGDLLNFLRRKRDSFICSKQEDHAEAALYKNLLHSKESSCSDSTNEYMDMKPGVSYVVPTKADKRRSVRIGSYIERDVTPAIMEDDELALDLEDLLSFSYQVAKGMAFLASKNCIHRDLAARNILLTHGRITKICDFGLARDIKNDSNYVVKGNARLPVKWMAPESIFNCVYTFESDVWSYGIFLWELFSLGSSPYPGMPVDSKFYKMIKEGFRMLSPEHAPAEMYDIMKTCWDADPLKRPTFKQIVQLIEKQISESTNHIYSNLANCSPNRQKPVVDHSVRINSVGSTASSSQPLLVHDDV

Legend:
Assay in all cases: co-IP
[1] = biological target: T1, GGA1 (Golgi-associated, γ-adaptin ear-containing, ARF-binding protein 1) (human (endogenous in GIST-T1 and leukemia cells)), Q9UJY5; conditions: remark: other sources report otherwise
T1 chain: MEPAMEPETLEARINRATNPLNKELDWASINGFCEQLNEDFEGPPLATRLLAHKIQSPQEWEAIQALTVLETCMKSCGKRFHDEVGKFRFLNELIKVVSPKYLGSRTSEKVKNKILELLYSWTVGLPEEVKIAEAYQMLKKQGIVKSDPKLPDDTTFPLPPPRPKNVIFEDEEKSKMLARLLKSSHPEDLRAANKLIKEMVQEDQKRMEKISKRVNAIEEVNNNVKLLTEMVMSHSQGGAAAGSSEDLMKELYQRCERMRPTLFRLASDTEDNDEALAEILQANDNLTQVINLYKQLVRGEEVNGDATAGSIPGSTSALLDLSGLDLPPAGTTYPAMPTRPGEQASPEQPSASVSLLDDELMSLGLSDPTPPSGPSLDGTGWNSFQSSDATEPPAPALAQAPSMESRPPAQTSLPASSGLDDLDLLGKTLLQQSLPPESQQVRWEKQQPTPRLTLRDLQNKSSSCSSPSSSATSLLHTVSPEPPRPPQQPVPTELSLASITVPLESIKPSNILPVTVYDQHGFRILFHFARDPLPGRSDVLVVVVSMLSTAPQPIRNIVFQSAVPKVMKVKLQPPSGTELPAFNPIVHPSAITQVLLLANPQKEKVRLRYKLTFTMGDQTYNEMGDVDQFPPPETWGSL

[2] = biological target: T1, GGA1 (Golgi-associated, γ-adaptin …); conditions: remark: other sources report otherwise
[3] = biological target: wild-type KIT of M-07e cells (acute megakaryoblastic leukemia) (human (endogenous in M-07e)) (UniProt P10721)

binding [1]: binds
binding [2]: binds
B1: γ-adaptin (AP1 component), O43747 1-822 (protein)
chain: MPAPIRLRELIRTIRTARTQAEEREMIQKECAAIRSSFREEDNTYRCRNVAKLLYMHMLGYPAHFGQLECLKLIASQKFTDKRIGYLGAMLLLDERQDVHLLMTNCIKNDLNHSTQFVQGLALCTLGCMGSSEMCRDLAGEVEKLLKTSNSYLRKKAALCAVHVIRKVPELMEMFLPATKNLLNEKNHGVLHTSVVLLTEMCERSPDMLAHFRKLVPQLVRILKNLIMSGYSPEHDVSGISDPFLQVRILRLLRILGRNDDDSSEAMNDILAQVATNTETSKNVGNAILYETVLTIMDIKSESGLRVLAINILGRFLLNNDKNIRYVALTSLLKTVQTDHNAVQRHRSTIVDCLKDLDVSIKRRAMELSFALVNGNNIRGMMKELLYFLDSCEPEFKADCASGIFLAAEKYAPSKRWHIDTIMRVLTTAGSYVRDDAVPNLIQLITNSVEMHAYTVQRLYKAILGDYSQQPLVQVAAWCIGEYGDLLVSGQCEEEEPIQVTEDEVLDILESVLISNMSTSVTRGYALTAIMKLSTRFTCTVNRIKKVVSIYGSSIDVELQQRAVEYNALFKKYDHMRSALLERMPVMEKVTTNGPTEIVQTNGETEPAPLETKPPPSGPQPTSQANDLLDLLGGNDITPVIPTAPTSKPSSAGGELLDLLGDINLTGAPAAAPAPASVPQISQPPFLLDGLSSQPLFNDIAAGIPSITAYSKNGLKIEFTFERSNTNPSVTVITIQASNSTELDMTDFVFQAAVPKTFQLQLLSPSSSIVPAFNTGTITQVIKVLNPQKQQLRMRIKLTYNHKGSAMQDLAEVNNFPPQSWQ

binding [3]: no binding
B2: protein kinase D2 (PKD2) (enzyme, UniProt Q9BZL6 1-878)
chain: MATAPSYPAGLPGSPGPGSPPPPGGLELQSPPPLLPQIPAPGSGVSFHIQIGLTREFVLLPAASELAHVKQLACSIVDQKFPECGFYGLYDKILLFKHDPTSANLLQLVRSSGDIQEGDLVEVVLSASATFEDFQIRPHALTVHSYRAPAFCDHCGEMLFGLVRQGLKCDGCGLNYHKRCAFSIPNNCSGARKRRLSSTSLASGHSVRLGTSESLPCTAEELSRSTTELLPRRPPSSSSSSSASSYTGRPIELDKMLLSKVKVPHTFLIHSYTRPTVCQACKKLLKGLFRQGLQCKDCKFNCHKRCATRVPNDCLGEALINGDVPMEEATDFSEADKSALMDESEDSGVIPGSHSENALHASEEEEGEGGKAQSSLGYIPLMRVVQSVRHTTRKSSTTLREGWVVHYSNKDTLRKRHYWRLDCKCITLFQNNTTNRYYKEIPLSEILTVESAQNFSLVPPGTNPHCFEIVTANATYFVGEMPGGTPGGPSGQGAEAARGWETAIRQALMPVILQDAPSAPGHAPHRQASLSISVSNSQIQENVDIATVYQIFPDEVLGSGQFGVVYGGKHRKTGRDVAVKVIDKLRFPTKQESQLRNEVAILQSLRHPGIVNLECMFETPEKVFVVMEKLHGDMLEMILSSEKGRLPERLTKFLITQILVALRHLHFKNIVHCDLKPENVLLASADPFPQVKLCDFGFARIIGEKSFRRSVVGTPAYLAPEVLLNQGYNRSLDMWSVGVIMYVSLSGTFPFNEDEDINDQIQNAAFMYPASPWSHISAGAIDLINNLLQVKMRKRYSVDKSLSHPWLQEYQTWLDLRELEGKMGERYITHESDDARWEQFAAEHPLPGSGLPTDRDLGGACPPQDHDMQGLAERISVL
